Values from PubChem BioAssay AID504804 (Drosophila RNAi Screening Center, 2011)
In all, the deposit lists about 19,000 reagents; this is a random part of those with a known target gene and a result. In the full data, 47 (0.25%) were called active. 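Signals are raw, not normalised; exact z-scores behind calls not deposited; actives needed confirmation, so some wells reaching 2 SD are inactive.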 Reagents against one gene are numbered here. A plus sign joins genes that one reagent is predicted to hit.

Purpose: 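Fly genes whose loss lessens doxorubicin-driven cell death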 (primary screen)
Cell system: Drosophila Kc cells
Reagents: long dsRNA against Drosophila genes, 0.5 µg dsRNA per well
Duration: 96 h (48 h knock-down, then 48 h drug)
Conditions: doxorubicin 5 µg/ml for 48 h, added 48 h after dsRNA
Read-out: 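Luminescent ATP counts per replicate, not normalised, reflecting viable cells after 48 h dsRNA knock-down followed by 48 h of 5 µg/ml doxorubicin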
Scale: raw ATP luminescence: higher = more viable cells, protection from doxorubicin
Call rule: 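z-score of 2 or more over plate mean in both duplicates, retained only when retests and separate dsRNAs confirm the protection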

predicted target	dsRNA no.	SD above plate mean	raw ATP luminescence, replicate 1	raw ATP luminescence, replicate 2	Outcome
CG1208	1		63230	17897	inactive
Drat (Death resistor Adh domain containing target)	1		46100	44853	inactive
angel	1		84140	62873	inactive
CG11779	1		31477	48030	inactive
CG11449	1		64997	56227	inactive
psq (pipsqueak)	1		20160	20180	inactive
Oseg4 (Outer segment 4)	1		79097	73960	inactive
Eh (Eclosion hormone)	1		89720	72020	inactive
Dhc98D (Dynein heavy chain at 89D)	1		62900	35570	inactive
apn (apnoia)	1		72070	62370	inactive
bun (bunched)	1		2.35e5	2.33e5	inactive
bun (bunched)	2		2.00e5	1.82e5	inactive
bun (bunched)	3		33327	30203	inactive
rgr (regular)	1		56540	38203	inactive
rgr (regular)	2		48770	39147	inactive
Mfap1 (Microfibril-associated protein 1)	1		48967	59763	inactive
Gr5a (Gustatory receptor 5a)	1		40600	58460	inactive
mAChR-B (muscarinic Acetylcholine Receptor, B-type)	1		43773	53367	inactive
Atac2 (Ada2a-containing complex component 2)	1		83523	54907	inactive
AstC-R2 (Allatostatin C receptor 2)	1		45370	36850	inactive
CG7006	1		33237	31727	inactive
Antdh (Antennal dehydrogenase)	1		3.54e5	3.54e5	inactive
Kap-alpha3 (karyopherin alpha3)	1		67987	53550	inactive
CG13024	1		68437	57830	inactive
PPYR1 (Protein phosphatase Y regulator 1)	1		2.05e5	2.73e5	inactive
Ptx1	1		61890	47940	inactive
CG33143	1		70193	66160	inactive
CG33143	2		37787	52570	inactive
CG42366	1		25257	40567	inactive
CG12194	1		21327	22803	inactive
CG17919	1		42067	36833	inactive
CG8419	1		36340	68983	inactive
Letm1	1		68900	54940	inactive
CG13315	1		54567	77863	inactive
CG4101	1		39803	36310	inactive
CG7276	1		55820	32320	inactive
Vps60 (Vacuolar protein sorting 60)	1		64037	64403	inactive
CG34280	1		2.45e5	2.52e5	inactive
Nt5a (5' nucleotidase A)	1		69887	73837	inactive
CG9993	1		54757	59250	inactive
CG2767	1		68040	28203	inactive
OS9 + Hf	1		94967	54077	inactive
NP15.6	1		39800	38740	inactive
CG3124	1		17863	27907	inactive
CG14007	1		27017	32240	inactive
CG32050 (retired record)	1		73593	64990	inactive
Dyrk2 (Dual-specificity tyrosine phosphorylation-regulated kinase 2)	1		73223	73813	inactive
CG13587	1		47360	45337	inactive
Gr10b (Gustatory receptor 10b)	1		2.60e5	2.79e5	inactive
CG15144	1		94913	81753	inactive
Mps1 (Monopolar spindle 1)	1		56237	53030	inactive
GluRS-m (Glutamyl-tRNA synthetase, mitochondrial)	1		82807	59987	inactive
Rsph9 (Radial spoke head protein 9)	1		3.42e5	2.61e5	inactive

16 entries from above, ordered by “raw ATP luminescence, replicate 1”, descending.
predicted target	dsRNA no.	SD above plate mean	raw ATP luminescence, replicate 1	raw ATP luminescence, replicate 2	Outcome
Gr10b (Gustatory receptor 10b)	1		2.60e5	2.79e5	inactive
CG34280	1		2.45e5	2.52e5	inactive
OS9 + Hf	1		94967	54077	inactive
CG32050 (retired record)	1		73593	64990	inactive
Dyrk2 (Dual-specificity tyrosine phosphorylation-regulated kinase 2)	1		73223	73813	inactive
Nt5a (5' nucleotidase A)	1		69887	73837	inactive
CG2767	1		68040	28203	inactive
Vps60 (Vacuolar protein sorting 60)	1		64037	64403	inactive
CG7276	1		55820	32320	inactive
CG9993	1		54757	59250	inactive
CG13315	1		54567	77863	inactive
CG13587	1		47360	45337	inactive
CG4101	1		39803	36310	inactive
NP15.6	1		39800	38740	inactive
CG14007	1		27017	32240	inactive
CG3124	1		17863	27907	inactive

The list goes on:
predicted target	dsRNA no.	SD above plate mean	raw ATP luminescence, replicate 1	raw ATP luminescence, replicate 2	Outcome
GluRIIE (Glutamate receptor IIE)	1		1.85e5	2.16e5	inactive
hop (hopscotch)	1		2.80e5	2.81e5	inactive
CG11456	1		20790	29390	inactive
CG12170	1	at least 2 SD above plate mean	97930	47003	active
CG13531	1		58303	49943	inactive
CG4238	1		2.83e5	2.80e5	inactive
CG13086	1		52067	54757	inactive
Glg1 (Golgi complex-localized glycoprotein 1)	1		30197	24077	inactive
Glg1 (Golgi complex-localized glycoprotein 1)	2		60173	63100	inactive
Glg1 (Golgi complex-localized glycoprotein 1)	3		64800	54543	inactive
Eig71Eh	1		36903	41283	inactive
Ccp84Ag	1		55837	56097	inactive
l(3)neo43 (lethal (3) neo43)	1		85720	70950	inactive
CG13760	1		49530	50480	inactive
Ir7b (Ionotropic receptor 7b)	1		34100	36000	inactive
CG6628	1		70870	68413	inactive
Cln3	1		87007	54143	inactive
Adgf-C (Adenosine deaminase-related growth factor C)	1		58760	98550	inactive
CG13545	1		38473	62653	inactive
raw	1		38280	57963	inactive
raw	2		35387	53977	inactive
l(2)k14505 (lethal (2) k14505)	1		63747	65953	inactive
Plc21C (Phospholipase C at 21C)	1		1.03e5	82257	inactive
Edg84A (Ecdysone-dependent gene 84A)	1		71510	60700	inactive
CG13029	1		99020	57867	inactive
EMC10 (ER membrane protein complex subunit 10)	1		66670	56450	inactive
Tsp29Fa (Tetraspanin 29Fa)	1		36680	72137	inactive
Gr28b (Gustatory receptor 28b)	1		25523	33847	inactive
Gr28b (Gustatory receptor 28b)	2		26090	30577	inactive
RyR (Ryanodine receptor)	1		47037	79273	inactive
CG32985	1		41720	78880	inactive
Dpck (Dephospho-CoA kinase)	1		49777	62913	inactive
holn1 (hole-in-one)	1		1.03e5	62683	inactive
CG40045	1		2.10e5	2.25e5	inactive
jhamt (juvenile hormone acid methyltransferase)	1		53117	74360	inactive
Glyp (Glycogen phosphorylase)	1		1.27e5	1.21e5	inactive
Nca (Neurocalcin)	1		65487	55680	inactive
peng (penguin)	1		2.63e5	2.52e5	inactive
Ir64a (Ionotropic receptor 64a)	1		70037	80923	inactive
Ir64a (Ionotropic receptor 64a)	2		78580	77823	inactive
CG3982	1		57277	41513	inactive
CG14882	1		46480	52787	inactive
CG3356	1		72463	69150	inactive
CG10839	1		60710	66860	inactive
cdi (center divider)	1		57690	43250	inactive
Gal (beta galactosidase)	1		20623	25200	inactive
CkIIalpha-i1 (CKII-alpha subunit interactor-1)	1		53937	46457	inactive
CG3842	1		35910	42830	inactive
Uhg2 + snoRNA:Me18S-G1620 + snoRNA:U14:30Ea	1		2.48e5	2.15e5	inactive
fd19B (forkhead domain 19B)	1		3.97e5	2.59e5	inactive
CG31534 (retired record)	1		20587	24470	inactive
CG31534 (retired record)	2		76987	71760	inactive
CG9784	1		3.37e5	3.17e5	inactive
CG6765	1		87743	93667	inactive
